PMC11996870
These are yes or no findings as the source states them, for the method shown. In cells and extracts the contact can be indirect. Some binding calls cover weakened binding; strength is not graded here.

Protein sequences, listed by entry. Tags and fused reporters are not part of them. Residues count along the entry.
UniProt P20827, residues 19-182: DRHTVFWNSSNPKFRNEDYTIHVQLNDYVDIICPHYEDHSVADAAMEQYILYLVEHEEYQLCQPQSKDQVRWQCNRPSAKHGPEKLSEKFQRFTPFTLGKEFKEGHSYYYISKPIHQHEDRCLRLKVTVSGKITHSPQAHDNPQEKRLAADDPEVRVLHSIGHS
UniProt P29317, residues 24-976: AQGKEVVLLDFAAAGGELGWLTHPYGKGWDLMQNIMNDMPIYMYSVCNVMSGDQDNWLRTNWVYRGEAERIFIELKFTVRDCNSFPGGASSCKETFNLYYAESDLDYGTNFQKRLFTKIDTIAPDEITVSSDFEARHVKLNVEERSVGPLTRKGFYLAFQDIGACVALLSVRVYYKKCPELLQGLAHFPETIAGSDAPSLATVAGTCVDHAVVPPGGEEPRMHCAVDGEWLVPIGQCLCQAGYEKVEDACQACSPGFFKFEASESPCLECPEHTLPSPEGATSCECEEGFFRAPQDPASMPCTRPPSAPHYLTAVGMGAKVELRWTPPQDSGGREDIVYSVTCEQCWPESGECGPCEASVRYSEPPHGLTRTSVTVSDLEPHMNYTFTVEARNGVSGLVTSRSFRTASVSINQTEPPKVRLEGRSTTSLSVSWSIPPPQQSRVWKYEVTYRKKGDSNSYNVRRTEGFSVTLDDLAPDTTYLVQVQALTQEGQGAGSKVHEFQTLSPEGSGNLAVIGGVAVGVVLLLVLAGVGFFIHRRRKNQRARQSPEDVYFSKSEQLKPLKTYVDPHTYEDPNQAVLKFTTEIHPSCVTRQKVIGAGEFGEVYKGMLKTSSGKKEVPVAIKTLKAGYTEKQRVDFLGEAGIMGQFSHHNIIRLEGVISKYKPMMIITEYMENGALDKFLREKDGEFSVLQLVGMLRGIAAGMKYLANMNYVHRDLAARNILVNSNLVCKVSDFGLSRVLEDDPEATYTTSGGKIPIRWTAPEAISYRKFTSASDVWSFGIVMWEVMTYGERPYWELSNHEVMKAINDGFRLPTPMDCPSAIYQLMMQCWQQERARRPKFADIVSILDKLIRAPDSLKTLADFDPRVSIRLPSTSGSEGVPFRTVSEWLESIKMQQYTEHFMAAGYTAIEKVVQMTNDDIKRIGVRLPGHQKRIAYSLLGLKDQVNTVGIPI

What was measured:
[1] = target: T1, EFNA2 (UniProt O43921); assay: co-IP; forward and reverse IP of EphA2 with EFNA2 or EFNA5 (Supplemental Figure 14)
T1 sequence: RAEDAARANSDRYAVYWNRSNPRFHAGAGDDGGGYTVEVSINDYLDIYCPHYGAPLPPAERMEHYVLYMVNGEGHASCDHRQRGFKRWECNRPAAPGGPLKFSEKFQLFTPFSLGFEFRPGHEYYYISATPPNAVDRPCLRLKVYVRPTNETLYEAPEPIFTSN

[2] = target: EFNA1 (human (endogenous in SiHa and HCC-94)) (UniProt P20827); assay: co-IP; immunoprecipitation with anti-EFNA1 or anti-EphA2 antibodies from SiHa and HCC-94 cells, Western blot; endogenous proteins
[3] = target: EFNA1-HA (human) (UniProt P20827); assay: co-IP; SiHa cells cotransfected with EFNA1-HA and FLAG-tagged EphA2 wild type or truncated mutants; immunoprecipitation with anti-HA antibodies (forward) and reverse co-IP

EphA2 (as used in the IP experiments with EFNA2 and EFNA5) (from UniProt P29317 24-976) (receptor)
binding [1]: no binding

EphA2 (from UniProt P29317 24-976) (receptor)
binding [2]: binds

FLAG-tagged wild-type EphA2 (EphA2^WT) (from UniProt P29317 24-976) (receptor)
binding [3]: binds
